The values that follow come from PMC8087765.

Sequences of proteins named here, by UniProt entry; tags and fusion partners are left off. A change or cut given only in a name is not applied to a line headed by its entry.
UniProt Q99683: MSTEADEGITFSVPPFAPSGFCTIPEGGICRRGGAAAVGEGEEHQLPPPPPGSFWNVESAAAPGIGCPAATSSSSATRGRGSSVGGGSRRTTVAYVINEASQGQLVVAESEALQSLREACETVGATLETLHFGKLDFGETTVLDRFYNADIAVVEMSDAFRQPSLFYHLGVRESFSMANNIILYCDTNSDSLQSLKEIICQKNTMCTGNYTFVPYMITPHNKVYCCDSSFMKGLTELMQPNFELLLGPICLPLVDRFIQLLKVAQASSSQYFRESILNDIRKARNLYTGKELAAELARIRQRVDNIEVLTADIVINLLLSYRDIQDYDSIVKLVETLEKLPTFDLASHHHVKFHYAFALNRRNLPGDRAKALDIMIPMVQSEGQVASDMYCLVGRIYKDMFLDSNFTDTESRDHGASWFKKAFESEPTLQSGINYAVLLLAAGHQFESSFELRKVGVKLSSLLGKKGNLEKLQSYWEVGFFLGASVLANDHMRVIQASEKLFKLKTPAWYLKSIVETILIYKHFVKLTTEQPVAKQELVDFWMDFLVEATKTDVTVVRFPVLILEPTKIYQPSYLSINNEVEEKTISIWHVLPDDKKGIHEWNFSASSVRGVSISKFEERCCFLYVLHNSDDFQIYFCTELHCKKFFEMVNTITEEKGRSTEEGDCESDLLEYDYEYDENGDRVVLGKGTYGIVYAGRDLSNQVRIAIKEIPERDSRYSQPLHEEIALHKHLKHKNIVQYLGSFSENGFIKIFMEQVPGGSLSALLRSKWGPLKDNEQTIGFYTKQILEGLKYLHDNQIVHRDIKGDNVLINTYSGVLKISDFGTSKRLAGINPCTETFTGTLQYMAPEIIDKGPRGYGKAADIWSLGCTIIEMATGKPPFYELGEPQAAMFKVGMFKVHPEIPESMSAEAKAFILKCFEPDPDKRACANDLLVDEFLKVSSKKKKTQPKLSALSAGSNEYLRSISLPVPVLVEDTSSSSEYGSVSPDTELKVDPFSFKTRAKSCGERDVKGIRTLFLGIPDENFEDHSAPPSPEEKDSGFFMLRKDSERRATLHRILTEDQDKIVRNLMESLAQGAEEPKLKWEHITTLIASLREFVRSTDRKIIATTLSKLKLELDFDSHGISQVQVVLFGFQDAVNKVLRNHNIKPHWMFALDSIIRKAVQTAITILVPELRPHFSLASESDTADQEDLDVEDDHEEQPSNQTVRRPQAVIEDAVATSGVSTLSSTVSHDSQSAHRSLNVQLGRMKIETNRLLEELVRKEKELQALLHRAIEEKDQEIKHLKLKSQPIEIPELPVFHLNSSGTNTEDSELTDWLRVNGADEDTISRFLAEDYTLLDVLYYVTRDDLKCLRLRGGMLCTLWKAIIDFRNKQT

Assay [1] has as its target HA-tagged ASK1 N-terminal truncated mutant, HA-ASK1 1-678 (human) (UniProt Q99683). The experiment in a line: co-IP; dimerisation experiment: HA/FLAG-tagged ASK1 N-terminal and MYC-tagged SDPR transfected into HEK 293T; precipitation with anti-HA/FLAG antibody.
Assay [2] deals with HA-tagged full-length apoptosis signal-regulating kinase 1 (ASK1) (human) (UniProt Q99683). Nature of the assay: co-IP; exogenous co-IP: HEK293T cells co-transfected with FLAG-tagged SDPR and HA-tagged ASK1 (full length or truncated); precipitation with anti-FLAG or anti-HA antibody, steps as for the endogenous co-IP.
Assay [3] addresses HA-tagged ASK1 N-terminal truncated mutant, HA-ASK1 1-678 (human) (UniProt Q99683). The assay is described as above.

Results are given in words; binding and its absence hold for the method and conditions named. In cells and extracts the contact can be indirect. Some binding calls cover weakened binding; strength is not graded here. For part of these data: Sequences can lack the tags named with a protein.

Consider “HA-tagged ASK1 N-terminal truncated mutant, HA-ASK1 1-678 (from UniProt Q99683 1-678) (domain or fragment)”, for which the binding entry in assay [1] was “binds”.

B1: FLAG-tagged serum deprivation-response protein (SDPR), expressed in HEK293T cells (protein, UniProt O95810 1-425)
chain: MGEDAAQAEKFQHPGSDMRQEKPSSPSPMPSSTPSPSLNLGNTEEAIRDNSQVNAVTVLTLLDKLVNMLDAVQENQHKMEQRQISLEGSVKGIQNDLTKLSKYQASTSNTVSKLLEKSRKVSAHTRAVKERMDRQCAQVKRLENNHAQLLRRNHFKVLIFQEENEIPASVFVKQPVSGAVEGKEELPDENKSLEETLHTVDLSSDDDLPHDEEALEDSAEEKVEESRAEKIKRSSLKKVDSLKKAFSRQNIEKKMNKLGTKIVSVERREKIKKSLTSNHQKISSGKSSPFKVSPLTFGRKKVREGESHAENETKSEDLPSSEQMPNDQEEESFAEGHSEASLASALVEGEIAEEAAEKATSRGSNSGMDSNIDLTIVEDEEEESVALEQAQKVRYEGSYALTSEEAERSDGDPVQPAVLQVHQTS
Turning to B1, the binding entry in assay [2] and in assay [3] was “binds” in each case.
